This passage reports binding results from article PMC8196013.

Sequences of proteins named here, by UniProt entry; tags and fusion partners are left off.
UniProt P0A8V2: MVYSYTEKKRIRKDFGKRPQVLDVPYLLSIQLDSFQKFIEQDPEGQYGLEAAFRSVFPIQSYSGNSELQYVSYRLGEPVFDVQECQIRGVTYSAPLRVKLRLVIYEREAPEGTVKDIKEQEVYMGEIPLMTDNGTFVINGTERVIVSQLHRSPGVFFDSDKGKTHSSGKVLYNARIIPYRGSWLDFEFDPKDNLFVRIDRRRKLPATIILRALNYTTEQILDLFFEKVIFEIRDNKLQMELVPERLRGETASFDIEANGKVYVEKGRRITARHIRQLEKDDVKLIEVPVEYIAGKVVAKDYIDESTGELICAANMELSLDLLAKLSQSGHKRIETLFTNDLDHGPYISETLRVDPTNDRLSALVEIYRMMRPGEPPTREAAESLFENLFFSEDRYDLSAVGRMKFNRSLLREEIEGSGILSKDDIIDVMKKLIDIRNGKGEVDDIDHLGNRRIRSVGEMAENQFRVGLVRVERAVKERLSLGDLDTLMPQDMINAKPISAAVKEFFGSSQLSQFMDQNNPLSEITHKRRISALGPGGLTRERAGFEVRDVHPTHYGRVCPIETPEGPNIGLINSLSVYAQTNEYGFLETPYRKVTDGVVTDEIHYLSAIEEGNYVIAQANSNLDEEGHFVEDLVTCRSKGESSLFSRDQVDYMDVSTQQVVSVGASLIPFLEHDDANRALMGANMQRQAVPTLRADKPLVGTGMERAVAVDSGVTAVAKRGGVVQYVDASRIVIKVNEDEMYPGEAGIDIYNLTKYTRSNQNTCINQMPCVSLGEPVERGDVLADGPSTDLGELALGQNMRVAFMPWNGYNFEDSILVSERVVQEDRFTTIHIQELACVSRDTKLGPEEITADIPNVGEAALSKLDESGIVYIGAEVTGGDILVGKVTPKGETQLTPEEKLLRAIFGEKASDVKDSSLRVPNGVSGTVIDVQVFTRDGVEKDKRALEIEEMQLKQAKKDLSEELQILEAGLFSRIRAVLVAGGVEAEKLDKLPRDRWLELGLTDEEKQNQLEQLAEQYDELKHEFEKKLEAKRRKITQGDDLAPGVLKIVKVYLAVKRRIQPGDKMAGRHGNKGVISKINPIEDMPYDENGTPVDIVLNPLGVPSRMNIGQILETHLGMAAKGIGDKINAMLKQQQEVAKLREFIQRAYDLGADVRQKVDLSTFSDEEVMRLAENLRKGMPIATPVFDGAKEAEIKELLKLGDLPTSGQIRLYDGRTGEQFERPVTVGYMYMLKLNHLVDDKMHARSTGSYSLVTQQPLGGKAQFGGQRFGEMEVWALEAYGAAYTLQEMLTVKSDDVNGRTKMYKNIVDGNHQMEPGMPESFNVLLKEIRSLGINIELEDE
UniProt P0AFG0: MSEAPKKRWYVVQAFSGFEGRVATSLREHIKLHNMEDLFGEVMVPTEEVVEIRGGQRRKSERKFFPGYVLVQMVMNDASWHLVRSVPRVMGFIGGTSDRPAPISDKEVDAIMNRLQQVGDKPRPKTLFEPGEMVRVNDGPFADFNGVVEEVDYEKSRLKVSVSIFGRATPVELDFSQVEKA
UniProt P0A8T7: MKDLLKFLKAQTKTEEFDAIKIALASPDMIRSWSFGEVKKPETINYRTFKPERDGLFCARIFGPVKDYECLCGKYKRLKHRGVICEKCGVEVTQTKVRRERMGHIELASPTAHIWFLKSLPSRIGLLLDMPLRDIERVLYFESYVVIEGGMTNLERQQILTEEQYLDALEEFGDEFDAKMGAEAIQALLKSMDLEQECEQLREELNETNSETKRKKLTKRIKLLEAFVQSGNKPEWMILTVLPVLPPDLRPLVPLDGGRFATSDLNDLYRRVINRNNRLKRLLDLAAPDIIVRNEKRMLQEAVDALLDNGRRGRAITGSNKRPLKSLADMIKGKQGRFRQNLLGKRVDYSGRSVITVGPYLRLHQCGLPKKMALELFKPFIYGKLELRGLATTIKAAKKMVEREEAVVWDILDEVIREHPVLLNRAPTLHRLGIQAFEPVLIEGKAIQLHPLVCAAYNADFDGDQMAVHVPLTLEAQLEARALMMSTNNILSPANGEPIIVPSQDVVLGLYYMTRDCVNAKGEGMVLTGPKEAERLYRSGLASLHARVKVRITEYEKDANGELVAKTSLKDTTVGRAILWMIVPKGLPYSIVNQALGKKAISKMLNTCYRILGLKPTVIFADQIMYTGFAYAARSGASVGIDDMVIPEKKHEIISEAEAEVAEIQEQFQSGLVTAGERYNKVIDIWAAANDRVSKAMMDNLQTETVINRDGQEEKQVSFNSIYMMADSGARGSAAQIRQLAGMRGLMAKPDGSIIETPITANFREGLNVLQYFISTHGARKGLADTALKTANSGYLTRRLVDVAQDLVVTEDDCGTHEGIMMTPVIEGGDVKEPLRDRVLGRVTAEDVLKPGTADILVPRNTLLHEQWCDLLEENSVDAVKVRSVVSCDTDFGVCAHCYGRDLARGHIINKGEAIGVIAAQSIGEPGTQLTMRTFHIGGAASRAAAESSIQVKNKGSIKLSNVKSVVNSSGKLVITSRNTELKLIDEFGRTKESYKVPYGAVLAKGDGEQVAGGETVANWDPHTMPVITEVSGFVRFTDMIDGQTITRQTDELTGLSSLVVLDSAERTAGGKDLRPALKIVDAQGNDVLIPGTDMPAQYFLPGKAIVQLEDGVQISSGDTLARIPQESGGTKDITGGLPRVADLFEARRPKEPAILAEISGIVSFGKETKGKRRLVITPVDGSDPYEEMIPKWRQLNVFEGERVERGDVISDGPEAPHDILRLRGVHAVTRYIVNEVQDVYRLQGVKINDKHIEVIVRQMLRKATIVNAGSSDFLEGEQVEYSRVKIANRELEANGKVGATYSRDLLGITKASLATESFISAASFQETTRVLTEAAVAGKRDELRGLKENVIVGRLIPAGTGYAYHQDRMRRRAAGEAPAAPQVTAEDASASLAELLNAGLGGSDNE
UniProt P0A7Z4: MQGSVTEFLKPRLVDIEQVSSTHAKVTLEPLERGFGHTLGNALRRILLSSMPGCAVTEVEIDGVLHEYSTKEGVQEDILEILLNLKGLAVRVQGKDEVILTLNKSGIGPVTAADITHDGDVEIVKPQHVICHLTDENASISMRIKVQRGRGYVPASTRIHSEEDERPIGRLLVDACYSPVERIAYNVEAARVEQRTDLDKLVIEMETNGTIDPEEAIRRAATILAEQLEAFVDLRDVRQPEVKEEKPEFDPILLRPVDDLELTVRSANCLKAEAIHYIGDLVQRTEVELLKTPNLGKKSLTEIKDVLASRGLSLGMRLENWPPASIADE

Changes are numbered by the printed parent chain. Results are given in words; binding and its absence hold for the method and conditions named. In cells and extracts the contact can be indirect. Some binding calls cover weakened binding; strength is not graded here. For part of these data: Tags and fused reporters may be left off the sequences shown.

The target of test [1] is RpoB-SPA (E. coli K12) (UniProt P0A8V2). As to the kind of experiment: cross-linking; sulfo-SDA (50-1000 µM, 2 h on ice, UV 365 nm) on the TEV eluates of the YacL-SPA, RpoB-SPA and NusG-SPA enrichments; LC-MS; 2% residue pair FDR, 5% PPI FDR.
Test [2] deals with rpoB (E. coli K12 (endogenous in the lysate)) (UniProt P0A8V2). The description is as above.
Test [3] concerns the target SPA-tagged NusG (E. coli K12) (UniProt P0AFG0). Description: cross-linking; TEV eluates of the SPA-tag pull-downs (YacL, NusG, RpoB) crosslinked with sulfo-SDA (50-1000 µM, 2 h on ice in the dark, UV 365 nm 15 s), LC-MS; 2% residue pair-level FDR and 5% PPI-level FDR.
For test [4], the target named is SPA-tagged RpoB (E. coli K12) (UniProt P0A8V2). Described as above.
Test [5] concerns the target NusG (E. coli K12 (endogenous in BW25113)) (UniProt P0AFG0). Description: cross-linking; BS3 or DSSO (0.75 mM, 2 h on ice) in each of 44 SEC fractions of E. coli K12 BW25113 lysate, fractions pooled, digested, SCX and hSAX fractionation, LC-MS; PPIs at 1% heteromeric decoy-based PPI-FDR.
Test [6] has as its target beta subunit of RNAP (E. coli K12 (endogenous in BW25113)) (UniProt P0A8V2). The test is described as above.
The target in test [7] is beta' subunit of RNAP (E. coli K12 (endogenous in BW25113)) (UniProt P0A8T7). Described as above.
Test [8] addresses NusG (E. coli K12 (endogenous in BW25113)) (UniProt P0AFG0). As to the kind of experiment: cross-linking; TEV eluates of the SPA-tag pull-downs (YacL, NusG, RpoB) crosslinked with sulfo-SDA (50-1000 µM, 2 h on ice in the dark, UV 365 nm 15 s), LC-MS; 2% residue pair-level FDR and 5% PPI-level FDR.
The target of test [9] is T1, sucA (E. coli K12 (endogenous in the lysate)) (UniProt P0AFG3).
T1 sequence: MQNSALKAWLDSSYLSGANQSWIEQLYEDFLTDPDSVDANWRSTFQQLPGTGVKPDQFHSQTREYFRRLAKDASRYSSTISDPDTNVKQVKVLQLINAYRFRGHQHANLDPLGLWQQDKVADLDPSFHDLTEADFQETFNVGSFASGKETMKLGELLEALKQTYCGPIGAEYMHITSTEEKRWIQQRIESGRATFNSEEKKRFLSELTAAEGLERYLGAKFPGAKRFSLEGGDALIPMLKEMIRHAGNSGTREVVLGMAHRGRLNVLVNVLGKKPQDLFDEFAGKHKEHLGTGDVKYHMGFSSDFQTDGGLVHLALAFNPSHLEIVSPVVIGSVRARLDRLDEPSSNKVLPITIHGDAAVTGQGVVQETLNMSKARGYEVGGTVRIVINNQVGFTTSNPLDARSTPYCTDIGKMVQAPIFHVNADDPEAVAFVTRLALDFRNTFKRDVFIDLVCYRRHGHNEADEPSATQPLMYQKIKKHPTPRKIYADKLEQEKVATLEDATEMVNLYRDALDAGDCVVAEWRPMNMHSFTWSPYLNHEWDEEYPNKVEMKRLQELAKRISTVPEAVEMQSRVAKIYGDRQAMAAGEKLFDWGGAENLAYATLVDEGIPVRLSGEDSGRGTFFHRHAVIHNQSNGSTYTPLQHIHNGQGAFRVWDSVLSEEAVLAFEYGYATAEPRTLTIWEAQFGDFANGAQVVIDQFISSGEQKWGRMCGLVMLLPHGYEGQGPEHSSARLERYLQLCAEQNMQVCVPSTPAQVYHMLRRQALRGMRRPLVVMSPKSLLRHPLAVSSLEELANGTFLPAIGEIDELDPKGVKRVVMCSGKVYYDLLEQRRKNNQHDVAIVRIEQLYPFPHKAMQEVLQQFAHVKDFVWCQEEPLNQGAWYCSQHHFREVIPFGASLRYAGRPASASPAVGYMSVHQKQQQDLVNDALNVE
As to the kind of experiment: cross-linking; BS3 or DSSO (0.75 mM, 2 h on ice) in the single SEC fractions of E. coli K12 lysate, fractions pooled, LC-MS; PPIs at 1% heteromeric PPI-FDR.

Test [10] deals with rpoB (E. coli K12 (endogenous in the lysate)) (UniProt P0A8V2). The test is described as above.
Test [11] concerns the target rpoC (E. coli K12 (endogenous in the lysate)) (UniProt P0A8T7). Described as above.
The target is the same in test [12]. Description: cross-linking; sulfo-SDA (50-1000 µM, 2 h on ice, UV 365 nm) on the TEV eluates of the YacL-SPA, RpoB-SPA and NusG-SPA enrichments; LC-MS; 2% residue pair FDR, 5% PPI FDR.
Test [13] has as its target T2, DegP (E. coli K12 (endogenous in the lysate)) (UniProt P0C0V0).
T2 sequence: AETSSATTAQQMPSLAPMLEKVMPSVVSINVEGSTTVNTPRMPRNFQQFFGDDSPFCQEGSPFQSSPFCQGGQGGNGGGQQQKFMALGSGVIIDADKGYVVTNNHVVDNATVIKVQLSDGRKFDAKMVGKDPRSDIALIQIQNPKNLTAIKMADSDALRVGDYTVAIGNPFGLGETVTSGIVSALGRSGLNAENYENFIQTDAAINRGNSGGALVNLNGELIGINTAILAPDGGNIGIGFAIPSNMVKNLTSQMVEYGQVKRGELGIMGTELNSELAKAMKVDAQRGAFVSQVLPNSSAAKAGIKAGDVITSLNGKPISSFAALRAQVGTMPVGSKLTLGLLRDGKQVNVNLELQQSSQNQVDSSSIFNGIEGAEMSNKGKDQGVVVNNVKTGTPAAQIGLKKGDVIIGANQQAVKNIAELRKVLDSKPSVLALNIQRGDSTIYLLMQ
As to the kind of experiment: cross-linking; BS3 or DSSO (0.75 mM, 2 h on ice) in the single SEC fractions of E. coli K12 lysate, fractions pooled, LC-MS; PPIs at 1% heteromeric PPI-FDR.

In test [14] the target is T3, DegQ (E. coli K12 (endogenous in the lysate)) (UniProt P39099).
T3 sequence: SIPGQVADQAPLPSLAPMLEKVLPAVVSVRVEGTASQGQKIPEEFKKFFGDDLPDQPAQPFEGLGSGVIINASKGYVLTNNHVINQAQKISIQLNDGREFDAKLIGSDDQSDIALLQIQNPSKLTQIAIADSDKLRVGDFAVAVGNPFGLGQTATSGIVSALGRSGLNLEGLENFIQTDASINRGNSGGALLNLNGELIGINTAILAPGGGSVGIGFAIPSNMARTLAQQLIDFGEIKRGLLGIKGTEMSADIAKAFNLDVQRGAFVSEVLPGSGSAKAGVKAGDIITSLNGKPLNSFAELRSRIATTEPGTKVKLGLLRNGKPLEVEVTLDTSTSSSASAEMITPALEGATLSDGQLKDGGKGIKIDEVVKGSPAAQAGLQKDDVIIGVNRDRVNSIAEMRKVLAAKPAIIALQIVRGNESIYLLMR
Described as above.

Test [15] concerns the target rpoA (E. coli K12 (endogenous in the lysate)) (UniProt P0A7Z4). As to the kind of experiment: cross-linking; sulfo-SDA (50-1000 µM, 2 h on ice, UV 365 nm) on the TEV eluates of the YacL-SPA, RpoB-SPA and NusG-SPA enrichments; LC-MS; 2% residue pair FDR, 5% PPI FDR.

B1: YacL (protein, UniProt P0A8E5 1-120)
chain: MDYEFLRDITGVVKVRMSMGHEVVGHWFNEEVKENLALLDEVEQAAHALKGSERSWQRAGHEYTLWMDGEEVMVRANQLEFAGDEMEEGMNYYDEESLSLCGVEDFLQVVAAYRNFVQQK
For the molecule B1, the binding result in [1], in test [2], in test [3], in test [4], in test [5] and in test [6] was “binds” throughout. In addition, the binding entry in [7] was “binds”.

B2: SPA-tagged YacL (protein, UniProt P0A8E5 1-120)
chain: B1 chain with Q118L
Regarding B2, in test [8], the binding entry is given as “binds”.

B3: sucB (protein, UniProt P0AFG6 1-405)
chain: MSSVDILVPDLPESVADATVATWHKKPGDAVVRDEVLVEIETDKVVLEVPASADGILDAVLEDEGTTVTSRQILGRLREGNSAGKETSAKSEEKASTPAQRQQASLEEQNNDALSPAIRRLLAEHNLDASAIKGTGVGGRLTREDVEKHLAKAPAKESAPAAAAPAAQPALAARSEKRVPMTRLRKRVAERLLEAKNSTAMLTTFNEVNMKPIMDLRKQYGEAFEKRHGIRLGFMSFYVKAVVEALKRYPEVNASIDGDDVVYHNYFDVSMAVSTPRGLVTPVLRDVDTLGMADIEKKIKELAVKGRDGKLTVEDLTGGNFTITNGGVFGSLMSTPIINPPQSAILGMHAIKDRPMAVNGQVEILPMMYLALSYDHRLIDGRESVGFLVTIKELLEDPTRLLLDV
With B3, the binding entry in [9] is “binds”.

B4: GreB (protein, UniProt P30128 1-158)
chain: MKTPLVTREGYEKLKQELNYLWREERPEVTKKVTWAASLGDRSENADYQYNKKRLREIDRRVRYLTKCLENLKIVDYSPQQEGKVFFGAWVEIENDDGVTHRFRIVGYDEIFGRKDYISIDSPMARALLKKEVGDLAVVNTPAGEASWYVNAIEYVKP
Consider B4, for which the binding result in [10], in [11] and in test [12] was “binds” each time.

B5: panD (protein, UniProt P0A790 1-126)
chain: MIRTMLQGKLHRVKVTHADLHYEGSCAIDQDFLDAAGILENEAIDIWNVTNGKRFSTYAIAAERGSRIISVNGAAAHCASVGDIVIIASFVTMPDEEARTWRPNVAYFEGDNEMKRTAKAIPVQVA
For B5, the binding result in test [13] and in test [14] was “binds” throughout.

B6: nuoF (protein, UniProt P31979 1-445)
chain: MKNIIRTPETHPLTWRLRDDKQPVWLDEYRSKNGYEGARKALTGLSPDEIVNQVKDAGLKGRGGAGFSTGLKWSLMPKDESMNIRYLLCNADEMEPGTYKDRLLMEQLPHLLVEGMLISAFALKAYRGYIFLRGEYIEAAVNLRRAIAEATEAGLLGKNIMGTGFDFELFVHTGAGRYICGEETALINSLEGRRANPRSKPPFPATSGAWGKPTCVNNVETLCNVPAILANGVEWYQNISKSKDAGTKLMGFSGRVKNPGLWELPFGTTAREILEDYAGGMRDGLKFKAWQPGGAGTDFLTEAHLDLPMEFESIGKAGSRLGTALAMAVDHEINMVSLVRNLEEFFARESCGWCTPCRDGLPWSVKILRALERGEGQPGDIETLEQLCRFLGPGKTFCAHAPGAVEPLQSAIKYFREEFEAGIKQPFSNTHLINGIQPNLLKERW
As for B6, the binding result in [15] is recorded as “binds”.
